Results deposited as PubChem BioAssay AID504774 (Drosophila RNAi Screening Center, 2011).

- Screen: 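Fly genes whose loss alters survival after alkylation damage to DNA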 (primary screen)
- Cells: Drosophila Kc167 cells
- Knock-down reagent: long dsRNA against Drosophila genes, about 0.25 µg dsRNA per well
- Time to read-out: about 6 days: 3 days knock-down, then 3 days with or without MMS
- Treatment: methyl methanesulphonate 0.004% (w/v) for 3 days after knock-down
- Detection: 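Viability in wells given MMS, read as ATP luminescence, normalised by quantiles plate by plate and averaged across replicates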
- Reading the numbers: mean viability with MMS and viability with MMS: higher = more surviving cells after MMS
The screen tested about 23,000 reagents; shown is an unselected part of those with a known target gene and a result. 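Values are quantile-normalised luminescence on an arbitrary scale; higher means more cells surviving MMS.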 The numbers tell different reagents against one gene apart.

Gene	dsRNA no.	mean viability with MMS	viability with MMS, replicate 1	viability with MMS, replicate 2
CG32369	1	3.43e6	3.83e6	3.92e6
CG32369	2	3.54e6	3.94e6	4.10e6
CG30060	1	3.58e6	3.97e6	4.10e6
nrv1 (nervana 1)	1	3.55e6	3.92e6	4.12e6
Brms1 (BRMS1 transcriptional repressor)	1	3.44e6	3.98e6	3.82e6
CG11269	1	3.44e6	3.97e6	3.80e6
Dus1 (Dihydrouridine synthase 1)	1	3.40e6	3.86e6	3.81e6
Gas8 (Growth arrest specific protein 8)	1	3.45e6	3.93e6	3.94e6
GstO2 (Glutathione S transferase O2)	1	3.48e6	3.90e6	3.99e6
Inx7 (Innexin 7)	1	3.67e6	4.21e6	4.11e6
Letm1	1	3.00e6	3.71e6	2.91e6
mRpL45 (mitochondrial ribosomal protein L45)	1	3.68e6	4.29e6	4.04e6
Dsp1 (Dorsal switch protein 1)	1	2.58e6	3.37e6	3.37e6
Dsp1 (Dorsal switch protein 1)	2	3.47e6	4.00e6	3.89e6
Dop1R1 (Dopamine 1-like receptor 1)	1	3.43e6	3.86e6	3.92e6
Dop1R1 (Dopamine 1-like receptor 1)	2	3.66e6	4.02e6	4.31e6
CG16972	1	3.47e6	4.00e6	3.84e6
CG1504	1	3.50e6	3.98e6	3.97e6
dnt (doughnut on 2)	1	3.61e6	3.71e6	4.52e6
Snp (Snipper)	1	3.53e6	4.01e6	3.98e6
Snp (Snipper)	2	3.40e6	3.96e6	3.81e6
CG10205	1	3.35e6	3.65e6	3.93e6
CG42758	1	3.64e6	4.15e6	4.08e6
CG15443	1	3.69e6	4.22e6	4.08e6
CG31643	1	3.55e6	4.09e6	3.97e6
CG6763	1	3.68e6	4.26e6	4.07e6
Sox102F	1	3.62e6	4.11e6	4.08e6
CG13674	1	3.36e6	3.69e6	3.87e6
mRpL55 (mitochondrial ribosomal protein L55)	1	3.69e6	4.32e6	4.05e6
Fa2h (Fatty acid 2-hydroxylase)	1	3.52e6	3.98e6	4.01e6
Fa2h (Fatty acid 2-hydroxylase)	2	3.50e6	3.98e6	3.98e6
dyw (daywake)	1	3.51e6	4.05e6	3.92e6
CG18178	1	3.44e6	3.93e6	3.89e6
Ufl1 (UFM1 specific ligase 1)	1	3.49e6	3.97e6	3.92e6
SK (small conductance calcium-activated potassium channel)	1	3.44e6	4.01e6	3.81e6
SK (small conductance calcium-activated potassium channel)	2	3.58e6	3.90e6	4.24e6
SK (small conductance calcium-activated potassium channel)	3	3.49e6	3.76e6	4.15e6
SK (small conductance calcium-activated potassium channel)	4	3.53e6	3.80e6	4.22e6
SK (small conductance calcium-activated potassium channel)	5	3.57e6	4.09e6	3.99e6
SK (small conductance calcium-activated potassium channel)	6	3.28e6	3.86e6	3.79e6
CG30278	1	3.32e6	3.87e6	3.85e6
CG7530	1	3.65e6	4.12e6	4.20e6
CG6055	1	3.50e6	3.94e6	3.99e6
frma (fra mauro)	1	3.75e6	4.19e6	4.13e6
Sclp	1	3.43e6	3.50e6	4.18e6
SelG (Selenoprotein G)	1	3.57e6	3.83e6	4.06e6
BCAS2	1	3.47e6	3.93e6	3.94e6
Rich (RIC1 homolog)	1	3.60e6	4.13e6	4.04e6
CG2256	1	3.59e6	4.21e6	3.94e6
Upf3	1	3.52e6	4.04e6	3.90e6
Jon99Ci (Jonah 99Ci)	1	3.50e6	4.02e6	3.90e6
rho-6 (rhomboid-6)	1	3.76e6	4.15e6	4.24e6
yl (yolkless)	1	3.68e6	4.16e6	4.12e6
CG33514	1	3.35e6	3.63e6	3.63e6
CG33514	2	3.46e6	3.90e6	3.95e6
CG33514	3	3.57e6	4.07e6	4.05e6
drn (doctor no)	1	3.25e6	3.78e6	3.74e6
uncNacbeta	1	3.64e6	4.12e6	4.17e6
Cpr72Eb (Cuticular protein 72Eb)	1	3.45e6	4.00e6	3.80e6
CG9344	1	3.48e6	3.97e6	3.91e6
Alg3 (ALG3, alpha-1,3- mannosyltransferase)	1	3.52e6	3.91e6	3.88e6
CG18538	1	3.62e6	4.05e6	4.14e6
Nadk1b (NAD kinase 1b)	1	3.60e6	4.19e6	3.93e6
Nadk1b (NAD kinase 1b)	2	3.79e6	4.20e6	4.37e6
Nadk1b (NAD kinase 1b)	3	3.47e6	4.04e6	3.83e6
sphinx1	1	3.51e6	3.90e6	4.08e6
PPP1R15 (Protein phosphatase 1 regulatory subunit 15)	1	2.62e6	3.39e6	2.17e6
CG33298	1	3.53e6	3.85e6	4.17e6
CG33298	2	3.65e6	4.36e6	3.96e6
CG30048	1	3.52e6	4.00e6	3.97e6
CG8813	1	3.68e6	4.17e6	4.23e6
CG12164	1	3.72e6	4.21e6	4.25e6
CG12164	2	3.34e6	3.86e6	3.83e6
CG18081	1	3.51e6	3.99e6	3.95e6
Su(var)205 (Suppressor of variegation 205)	1	3.66e6	4.29e6	4.04e6
CG34324	1	3.51e6	3.93e6	4.02e6
CG34324	2	3.65e6	4.14e6	4.15e6
trus (toys are us)	1	3.46e6	3.96e6	3.92e6
CG34001	1	3.54e6	4.08e6	3.96e6
CG32284	1	3.61e6	3.91e6	4.27e6
CG7886	1	3.53e6	4.11e6	3.90e6
Grip84 (Gamma-tubulin ring protein 84)	1	3.48e6	4.02e6	3.87e6
pira (pirate)	1	3.52e6	4.05e6	3.93e6
CG3652	1	3.65e6	4.17e6	4.05e6
upSET	1	3.03e6	3.60e6	3.63e6
upSET	2	3.65e6	4.12e6	4.16e6
hec (hector)	1	3.67e6	4.15e6	4.12e6

As entered above:
Entry for uncNacbeta under “mean viability with MMS”: 3.64e6
For “mean viability with MMS”, Su(var)205 (Suppressor of variegation 205) shows 3.66e6
Under “viability with MMS, replicate 1”, CG6763 shows 4.26e6
CG34324 #1, viability with MMS, replicate 2 = 4.02e6
